Literature values in patent US7932042B1, “Methods and compositions for the treatment of psychotic disorders through the identification of the olanzapine poor response predictor genetic signature” (Suregene, LLC, priority 2010, dated 2011).
At least one compound was matched to its structure with a doubt left.

Key:
[1] = system: patients suffering from schizophrenia; details: cited from earlier work
[2] = system: patients suffering from schizophrenia; details: population not segmented by OPRP status; negative = greater reduction in PANSS; cited from earlier work

In the case of `Cc1cc2c(s1)Nc1ccccc1N=C2N1CCN(C)CC1` [Olanzapine], the “Efficacy advantage over first generation (typical) antipsychotics in the meta-analysis” value ([1]; result in words) is given as “significant advantage”, the “Effect Size vs. FGA” value ([1]; vs first generation antipsychotics, Davis et al. (2003)) is given as −0.21 and the “Effect Size vs. Placebo” value [2] is given as −0.59.
